Reference: US20260035722A1, “METHOD FOR LIQUEFYING AGAROSE AND PRODUCING NEOAGAROTETRAOSE/NEOAGAROHEXAOSE BY USING THERMOSTABLE GH16B BETA-AGARASE DERIVED FROM NOVEL AGAR-DEGRADING BACTERIUM” (Kyungpook National University Industry-Academic Cooperation …, priority 2022, published 2026)
At least one read-out could not be matched to a standard name with certainty.

Test: Kinetic parameters of GH16B β-agarase (Lineweaver-Burk, DNS method)
Format: biochemical
Conditions: for agarose
Description: Quantitative analysis of GH16B β-agarase activity was performed using the DNS method, which detects reducing sugars released from agarose. The enzyme solution (100 μL) was mixed with an equal volume of 0.8% melted agarose in an appropriate buffer. The content of reducing sugars formed in the reaction mixture was determined colorimetrically using DNS reagent after 30 min of incubation at 50° C. The amount of enzyme that produced reducing power equivalent to 1 μmol of D-galactose per min was defined as one unit of enzymatic activity.
The optimal temperature was determined using 50 mM Tris-HCl buffer (pH 7.0) for 30 min over a temperature range of 25 to 70° C. The optimal pH was determined using 50 mM Mollvaine buffer ([…] to 7.5) and 50 mM Tris-HCl buffer (pH 7.5 to 10.0). For temperature and pH stability assays, aliquots of enzyme were preincubated at the indicated temperature and pH for the indicated time, and then the relative enzyme activity was measured under standard assay conditions (30 min, 50° C., 50 mM Tris-HCl buffer, pH 7.0). The kinetic parameters of GH16B β-agarase were determined by adding a known amount of the enzyme solution to the agarose substrate solution (1 to 5 mg/mL agarose in 50 mM Tris-HCl, pH 7.0). The Lineweaver-Burk equation, generated via GraphPad Prism 8 statistical package (GraphPad Software Inc., USA), was used to calculate Km and Vmax values. […]

B1: GH16B β-agarase: Thermostable endolytic GH16 family β-agarase (SEQ ID NO: 1, 597 aa, 63.8 kDa) from Cellvibrio sp. KY-GH-1, expressed in E. coli (protein, listed as Cellvibrio sp.)
chain: MKKITSCIAAALLLSAPLASFAADWDSVPIPAAAGTGKTWQLQSISDEFNYTASPTVKPAEFNTRWNPSFINSWTGPGDSEFNAGHSYTSGGSLALQSSAKAGTNKIYTGIISSKETFTYPLYLEARVKHTGNTLANAVWMLSADSTQEIDAMESYGSDRAGQEWFDQRMHVSHHVFIRSPFQDYQPKDEGSWVVNPAGGTWRGAMHVYGVHWKDPWNLDYYIDGVKVRTVSGPAMIDPYNFTNGTGINKPLHIIIDVEHQDWRDVRPTAAELADTSKSIMFVDWIRVYKPVTSSATSSSNSVSSSSSSLSNSSSSSATTVIDFANYFDTGKSTASVAGDTYVGFNKSGSGNINYNTAGDWADYLVTLPSDGQYKIEVTTASPMTSGIGAKLSVDGIYVSTTSLAATGGWELYSASTLANNLSIGAGTHTVRIESTGTSAWQWNGDEIRVTKVGSAPVGSPTTPAPVAMIIQAESFSATGGVYDGFKTYSVNGVSAINYNQRGDWADYAVNVAADGSYTFNAYVSSPMSGAALEVSVDGVKVLTQAVPNNGSWDSFQKVSSASKIALTKGAHTIRVTSAGTTSSTWEWNADKFELIP
B1 gave a kcat/Km of 4.8e+06 M⁻¹ s⁻¹.
